Here are results for 53 compounds from PubChem BioAssay AID1487 (National Center for Advancing Translational Sciences (NCATS), 2009).

The experiment in a line: qHTS Assay for Modulators of Lamin A Splicing. The settings on record: HeLa LMNA splicing GFP/RFP minigene ratio, 48 h. The method in brief:
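Read-out is the ratio of GFP to DsRed2 object intensity, acquired by 488 nm laser-scanning cytometry on HeLa lamin A-EGFP minigene reporter cells. Compound incubation 48 hrs at 37 °C in Opti-MEM with 2% FBS; DMSO 0.5% final.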

Where [1] appears, read: measured here: RFP viability control channel.
Setting [2] is: measured here: GFP splicing reporter channel.

The other results are listed elsewhere or left out. Further columns of the screen follow, without active or inactive calls. Most of these compounds were active or inconclusive in the main read-out, so they are no random draw. Words in brackets tell the shape of the fitted curve; partial curves, single points and poor fits give uncertain potencies.

Take `CC(C)c1ccc2[nH]c(O)c(N=NC(=S)NCCc3ccccc3)c2c1`: under setting [1], the AC50 (as a rule, the midpoint of the concentration-response curve, whichever way the signal moves) was 0.398 µM [rising, partial curve, poor fit]. As to `O=C(Nc1ccc2nc3n(c(=O)c2c1)CCCC3)c1cc([N+](=O)[O-])ccc1F`, the concentration at half-maximal activity (AC50) by setting is: under setting [2], 35.5 µM [falling, single point]; under setting [1], 12.6 µM [falling, partial curve]. `COc1cc2nc(CN3CCN(c4ncc(C(F)(F)F)cc4Cl)CC3)[nH]c(=O)c2cc1OC`: the half-maximal activity concentration (AC50) is, setting by setting: under setting [2], 0.501 µM [falling, partial curve]; under setting [1], 0.398 µM [falling, partial curve]. Turning to `Fc1ccc(-c2nc3cnccn3c2NC2CCCC2)cc1`, the AC50 under setting [2] is 5.62 µM [rising, single point]. On to `Cc1cc(S(=O)(=O)N2CCN(c3ccccc3C)CC2)ccc1F`, for which the half-maximal activity concentration (AC50) under setting [1] was 14.1 µM [rising, single point]. With `Cc1ccc(Cc2cnc(N3C(=N)SC(c4ccccc4)C3=O)s2)cc1` (stereo unspecified), the AC50 under setting [1] is 14.1 µM [rising, partial curve].

`Cc1ccc(-n2nnnc2-c2cnc(N3CCCC3)nc2C(F)(F)F)cc1`: the AC50 runs as follows: under setting [2], 2.24 µM [rising, full curve, poor fit]; under setting [1], 7.94 µM [rising, partial curve]. Take `CCN(CCn1cccn1)C(=O)CCc1nnc(CCCc2ccccc2)o1`: under setting [1], the AC50 was 0.01 µM [falling, full curve, poor fit]. Regarding `Clc1ccc(SCc2cc(N3CCOCC3)nc(-c3ccccn3)n2)cc1`, the AC50 under setting [2] is 35.5 µM [rising, single point] and the AC50 under setting [1] is 14.1 µM [rising, partial curve]. For `O=C(CON=C1c2ccccc2-c2ccccc21)NC12CC3CC(CC(C3)C1)C2`, the AC50 is 31.6 µM [rising, single point] under setting [2] and 31.6 µM [rising, single point] under setting [1].

Regarding `O=C(NCCn1ccc2ccccc21)C1CCCCC1`, the AC50 under setting [1] was 35.5 µM [rising, single point].

With `COc1ccc(C2C3=C(OC(C)=O)c4ccccc4C3=Nc3c2c(=O)n(C)c(=O)n3C)cc1` (stereo unspecified), under setting [2], the AC50 was 20 µM [rising, partial curve].

With `COc1cc(C(=O)Oc2ccccc2/C=N/NC(=O)c2ccc(Cl)cc2Cl)cc(OC)c1OC`, the AC50 under setting [1] is 17.8 µM [rising, single point]. On the same count and under the same terms, in the case of `CCNC(=O)C1=C(O)c2sccc2N(C)S1(=O)=O` it was 0.02 µM [falling, full curve, poor fit]; in that of `COc1ccc(CCN2C(=O)c3[nH]nc(-c4ccccc4O)c3C2c2ccc(C)cc2)cc1OC` (stereo unspecified), 35.5 µM [rising, single point].

For the compound `CC(=O)N1CCCc2cc(S(=O)(=O)N(CC(C)C)CC(C)C)ccc21`, the AC50 by setting is: under setting [2], 28.2 µM [rising, single point]; under setting [1], 35.5 µM [rising, single point]. For the compound `Cc1ccc(-n2nnnc2SCC(=O)N2CCc3ccccc3C2)c(C)c1`, the AC50 under setting [1] was 35.5 µM [rising, single point]. Turning to `O=C(N/N=C/c1c(O)ccc2ccccc12)c1cccc(C(F)(F)F)c1`, the AC50 under setting [1] was 11.2 µM [rising, partial curve]. Take `O=C(c1ccc2c(=O)n(-c3ccccc3)c(=O)[nH]c2c1)N1CCN(c2ccc(F)cc2)CC1`: the AC50 by setting is: under setting [2], 14.1 µM [rising, partial curve]; under setting [1], 14.1 µM [rising, partial curve]. In the case of `CC(C)COc1ccc2[nH]c3c(c2c1)CCCC3=O`, the AC50 under setting [1] was 3.16 µM [falling, full curve]. For the compound `CCN1C(=O)/C(=C2/C(=O)N3c4c(cc(OC(C)=O)cc42)C(C)=CC3(C)C)SC1=S`, the AC50 is, setting by setting: under setting [2], 0.282 µM [rising, full curve, poor fit]; under setting [1], 0.112 µM [rising, full curve, poor fit]. Regarding `CCc1n[nH]c(=S)n1N=C1CCC(C)CC1` (stereo unspecified), the AC50 under setting [1] was 35.5 µM [falling, partial curve, poor fit]. As for `CCN1C(=O)N(C)[C@@H](c2ccccc2)C(C(C)=O)=C1C`, the AC50 was 0.158 µM [falling, full curve, poor fit] under setting [2] and 0.158 µM [falling, full curve] under setting [1].

On to `CCC1CCCCN1C(=O)c1ccc(OC2CCN(C(=O)C3CC3)CC2)cc1` (stereo unspecified), for which the concentration at half-maximal activity (AC50) under setting [1] was 3.98 µM [rising, partial curve]. As for `O=C(Cc1cccs1)Nc1cc(SCCO)cc([N+](=O)[O-])c1`, the AC50 was 10 µM [rising, partial curve] under setting [2] and 14.1 µM [rising, single point] under setting [1].

Consider `N#Cc1c(NC(=O)CSc2ncc(-c3ccccc3)n2CC2CCCO2)sc2c1CCCC2` (stereo unspecified), for which the AC50 runs as follows: under setting [2], 14.1 µM [rising, single point]; under setting [1], 15.8 µM [rising, partial curve]. As for `CC1C(=O)N2CCCc3cc(S(=O)(=O)Nc4ccc(Br)cc4F)cc1c32` (stereo unspecified), the AC50 under setting [2] was 0.0631 µM [rising, full curve, poor fit].

Take `CSc1ccc2c(c1)[C@H](N1CCN(C)CC1)Cc1ccccc1S2`: the AC50 under setting [2] is 7.08 µM [falling, partial curve, poor fit].

As to `CNC(=S)Nc1ccc(-c2nc3ccc(C)cc3s2)cc1`, the AC50 is, setting by setting: under setting [2], 28.2 µM [rising, single point]; under setting [1], 35.5 µM [rising, single point]. Turning to `CC(C)[C@@H]1NC(=O)N(c2ccc(Oc3ccccc3)cc2)C1=O`, the half-maximal activity concentration (AC50) reads like this: under setting [2], 14.1 µM [rising, single point]; under setting [1], 35.5 µM [rising, single point]. Regarding `O=C(Nn1c(SCc2ccc([N+](=O)[O-])cc2)nc2ccccc2c1=O)c1ccc(F)cc1`, under setting [1], the AC50 was 8.91 µM [rising, partial curve].

For the compound `O=C(Cn1c(=O)oc2cc(S(=O)(=O)NCc3ccccc3)ccc21)N(CCO)Cc1ccccc1`, the AC50 under setting [2] is 0.708 µM [rising, full curve, poor fit]. For the compound `CN(C)S(=O)(=O)c1cccc(NC(=O)CCSc2ccc(Cl)cc2)c1`, the concentration at half-maximal activity (AC50) by setting is: under setting [2], 12.6 µM [rising, partial curve]; under setting [1], 15.8 µM [rising, partial curve]. As for `CC1CCCN(C(=O)C2CCN(CCCc3ccccc3)CC2)C1` (stereo unspecified), under setting [2], the AC50 is 5.62 µM [rising, single point]. Turning to `O=C(Cc1ccc(Cl)cc1)Nc1ccc(S(=O)(=O)Nc2cnc3ccccc3n2)cc1`, the concentration at half-maximal activity (AC50) is 0.00794 µM [rising, full curve, poor fit] under setting [2] and 0.01 µM [rising, full curve] under setting [1]. For `O=C(Cc1ccc(NS(=O)(=O)c2ccc(F)cc2)cc1)NCc1ccccc1`, the AC50 under setting [1] is 35.5 µM [rising, single point].

Consider `Cc1ccc(C)c(S(=O)(=O)N2CC(=O)N(CCc3ccccc3)C(=O)C2)c1`, for which the AC50 reads like this: under setting [2], 20 µM [rising, single point]; under setting [1], 31.6 µM [rising, single point]. On to `COc1ccccc1-n1c(SCC(=O)Nc2ccccc2C)nc(O)cc1=O`, for which, under setting [1], the AC50 is 6.31 µM [falling, single point].

In the case of `Cc1ccc(C)c(NC(=O)C(Sc2nc3ccc(C)cc3[nH]2)c2ccccc2)c1` (stereo unspecified), the AC50 by setting is: under setting [2], 12.6 µM [rising, single point]; under setting [1], 35.5 µM [rising, single point]. As for `CC(C)NC(=O)c1noc2cc([N+](=O)[O-])ccc12`, the AC50 reads like this: under setting [2], 2 µM [falling, full curve, poor fit]; under setting [1], 5.01 µM [falling, partial curve]. Regarding `COc1ccc(OC)c(NC(=O)CSc2nnnn2-c2ccccc2F)c1`, the AC50 was 35.5 µM [rising, single point] under setting [2] and 35.5 µM [rising, single point] under setting [1]. In the case of `Cc1ccc(S(=O)(=O)N2CCOCC2)cc1C(=O)N1C(=O)c2cccc(N)c2C1=O`, under setting [1], the AC50 is 35.5 µM [rising, single point].

Regarding `Cc1ccccc1OCC(=O)Nc1ccc(Cc2ccncc2)cc1`, the AC50 reads like this: under setting [2], 14.1 µM [rising, single point]; under setting [1], 22.4 µM [rising, single point].

Consider `COc1ccc(CCNC(=O)C2CC(=O)N(c3ccc(Br)cc3)C2)cc1OC` (stereo unspecified), for which, under setting [2], the AC50 was 0.00447 µM [rising, full curve, poor fit]. Turning to `CCS(=O)(=O)Nc1ccc(-c2cc(-c3ccccc3)c3cc(C)ccc3n2)cc1`, the AC50 under setting [2] is 17.8 µM [falling, single point].

With `CC(C)(C)c1ccc(/C=N/OCC(=O)NCc2ccccc2)cc1`, under setting [1], the AC50 was 17.8 µM [rising, single point].

On to `COc1c(O[C@H]2O[C@@H](CO)[C@@H](O)[C@@H](O)[C@@H]2O)cc2c(c1OC)-c1ccc(SC)c(=O)cc1[C@H](NC(C)=O)CC2`, for which the AC50 by setting is: under setting [2], 1.41 µM [falling, single point]; under setting [1], 5.01 µM [falling, single point]. Regarding `CC1=C(C(=O)OCc2ccccc2)C(c2ccc(C)o2)C2=C(CCCC2=O)N1` (stereo unspecified), under setting [1], the AC50 was 31.6 µM [rising, single point]. As for `CN1Cc2c(N)cccc2C(c2ccccc2)C1` (stereo unspecified), the AC50 under setting [2] is 35.5 µM [falling, partial curve, poor fit] and the AC50 under setting [1] is 0.00316 µM [falling, full curve, poor fit]. As for `COc1cc(CN2CC(=O)N(c3ccc(C)cc3)C2=S)cc(OC)c1OC`, the AC50 under setting [1] is 28.2 µM [rising, single point].

For the compound `N#Cc1nc(-c2ccco2)oc1NCc1ccco1`, under setting [1], the AC50 was 15.8 µM [rising, partial curve, poor fit]. Regarding `C[C@]12C[C@H](O)C3[C@@H](CCC4=CC(=O)CC[C@@]43C)[C@@H]1CC[C@@H]2C(=O)CO` (stereo partly specified), under setting [2], the AC50 was 7.94 µM [rising, partial curve].

Take `CCCC(C)NC(=O)c1ccc2[nH]c3c(c2c1)CC(C)CC3` (stereo unspecified): the AC50 is 11.2 µM [rising, single point] under setting [2] and 10 µM [rising, partial curve, poor fit] under setting [1].
